Data: publication PMC12668130
For at least one entry, the source does not settle the construct or the ends of the probe.

Legend:
[1] = test system: PTBP1; test: EMSA; settings: Kd value only in figure; EMSA: 50 mM Tris-HCl pH 7.5 (25 C), 100 mM KCl, 2.5 mM MgCl2, 0.1 mM ZnCl2, 2 mM 2-mercaptoethanol, 0.05 mg/ml BSA, 0.05 mg/ml yeast tRNA, 5% glycerol, 30 C 30 min; recombinant protein; label: 5'-32P
[2] = test system: PTBP1; test: UV crosslinking; settings: 600 nM protein, efficient; EM/nucleosome/UV: 25 mM HEPES pH 7.9, 50 mM KCl, 2 mM MgCl2, 10% glycerol, 1 mM TCEP, 30 C; recombinant protein; label: 5'-32P

Does “UCUUUCUUCUUUCUUCUUUCUUCUUUCUUCUUUCUUCUUUCU [(UCUUUCU)6]” bind [1]?
Result: binds

Does “UCUUUCUUCUUUCUUCUUUCUUCUUUCUUCUUUCUUCUUUCU [(UCUUUCU)6]” bind [2]?
Result: binds
